Experimental data reported in PubChem BioAssay AID743245 (National Center for Advancing Translational Sciences (NCATS), 2014).
This list was built around the results that the source calls inconclusive (neither active nor inactive); the mix of calls is not that of the screen. Potencies beside an inconclusive call are fits to weak or partial responses and may not hold up. Active and inactive are the calls of the source. Calls come from the whole dose curve; as a rule, active = well fitted inhibition curve with a large enough effect; inconclusive = small, poorly fitted or top-dose-only effect; inactive = flat fitted curve, though single readings scatter.

Protein sequences, listed by entry. Tags and fused reporters are not part of them.
UniProt P80244, whole entry, looked up: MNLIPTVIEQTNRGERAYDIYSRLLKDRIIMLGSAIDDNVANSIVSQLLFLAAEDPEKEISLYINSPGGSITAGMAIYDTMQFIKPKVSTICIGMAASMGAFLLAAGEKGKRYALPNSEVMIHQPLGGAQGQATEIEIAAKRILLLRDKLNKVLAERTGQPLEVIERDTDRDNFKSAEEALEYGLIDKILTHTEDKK

Target: ATP-dependent Clp protease proteolytic subunit (Bacillus subtilis (strain 168)) (UniProt P80244)
Experiment: qHTS Assay for Activators of ClpP: Hit Validation of Inhibitors; note: nearly all actives have a fitted effect of over 70% in size
Details: purified B. subtilis ClpP, FRET-FV substrate cleavage, 20 min; activity change, negative = inhibition: at 57.5 µM (top of the series)
How it was run: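 FRET quenching-reversal read-out, ex 320 nm, em 430 nm, with delta taken between 0 and 20 min at room temperature. Enzyme: B. subtilis ClpP 10 microg/mL; substrate FRET-FV 3 microM; buffer 100 mM Tris/HCl pH8, 100 mM KCl. Normalized to ADEP 5.8 microM and DMSO/no-enzyme wells.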
% is set by controls: 0 for no effect and ±100 for the full control effect; potency is the fitted concentration of half-maximal effect.

Row | SMILES | Potency | activity change, negative = inhibition
1 | CCOc1ccc(CC(=O)Nc2c(C(=O)Nc3ccccc3)oc3ccccc23)cc1OCC | inconclusive: 9.68 µM [inhibitor, partial curve] | –
2 | c1ccc2nc(-c3ccc(N4CCOCC4)cc3)ccc2c1 | inactive | –
3 | COc1ccc2cc3cc(C(=O)Nc4ccccc4C)oc3nc2c1 | active: 15.3 µM | –
4 | CN(C)S(=O)(=O)Oc1ccccc1C(=O)Nc1cccc(C(F)(F)F)c1 | inactive | –
5 | CCOc1ccc(-n2nc3ccc(NC(=O)c4ccc5c(c4)OCCO5)cc3n2)cc1 | inconclusive: 3.43 µM [inhibitor, full curve] | –
6 | Fc1cc(F)c2nc(Nc3nc4cc5c(cc4s3)OCO5)sc2c1 | inconclusive: 15.3 µM [inhibitor, partial curve] | –
7 | COc1cccc2c1cc1c(=O)n(CC(=O)NCc3ccco3)nc(C)n12 | inconclusive: 6.11 µM [inhibitor, full curve, poor fit] | –
8 | Cc1ccc(C(=O)Nc2cccc(C(F)(F)F)c2)cc1NC(=O)c1nccnc1N | inconclusive: 12.2 µM [inhibitor, full curve] | –
9 | Cc1ccc(/C=C/c2nc3ccccc3n2S(=O)(=O)c2cccc(Cl)c2)cc1 | inconclusive: 43.2 µM [inhibitor, single point] | –
10 | O=C(Nc1sc2c(c1C(=O)NC1CCCCC1)CCC2)c1ccco1 | inconclusive: 21.7 µM [inhibitor, partial curve] | –
11 | NC(=O)c1ccccc1NC(=O)c1ccc(-c2ccc(Br)cc2)o1 | active: 17.2 µM | –
12 | O=C(Nc1nc2nc(-c3ccccc3)cc(-c3ccccc3)n2n1)c1ccco1 | active: 12.2 µM | –
13 | COc1c(C)cccc1C(=O)Nc1ccc(-c2nc3ccccc3s2)c(Cl)c1 | inactive | –
14 | COc1ccc(-c2cc(C(=O)Nc3c(Cl)cc(Cl)cc3Cl)c3ccccc3n2)cc1OC | active: 21.7 µM | –
15 | CCN(CC(=O)Nc1c(F)cccc1F)C(=O)Cc1csc(-c2ccc(OC)c(OC)c2)n1 | active: 12.2 µM | –
16 | O=C(Nc1cccc(Cl)c1)c1nc[nH]c1C(=O)NCc1ccccc1 | inconclusive: 27.3 µM [inhibitor, partial curve] | –
17 | O=C(COc1ccccc1F)Nc1c(C(=O)Nc2cccc(F)c2)oc2ccccc12 | inconclusive: 8.63 µM [inhibitor, full curve] | –
18 | Cc1cccc(N2CCN(C(=O)c3cn(C4CCCCC4)c(=O)c4c3c3ccccc3n4C)CC2)c1C | inactive | –
19 | O=c1c2ccccc2nc2n1CCCCN2 | active: 24.3 µM | –
20 | CCN(c1ccccc1)S(=O)(=O)c1ccc(OC)c(NC(=O)c2cc(F)c(F)c(F)c2F)c1 | inconclusive: 43.2 µM [inhibitor, single point] | –

Row | SMILES | Potency | activity change, negative = inhibition
21 | Brc1cccc(-c2nnn3c2nc(NCc2ccc4c(c2)OCO4)c2ccccc23)c1 | inconclusive: 27.3 µM [inhibitor, partial curve] | –
22 | CCc1ccc(NC(=O)c2c(Cl)nc(C)c(Cl)c2C)cc1 | inactive | –
23 | Cc1ccc(NC(=O)c2oc3ccccc3c2NC(=O)Cc2ccccc2)cc1 | inconclusive: 12.2 µM [inhibitor, partial curve] | –
24 | COc1ccc(NC(=O)C(c2cc3ccccc3o2)n2c(=O)c(-c3cc4ccccc4[nH]3)nc3ccccc32)cc1 (stereo not given) | inactive | –
25 | COc1cc2c(cc1OC)C(COc1ccc3c(C)cc(=O)oc3c1)N(C(=O)c1ccccc1F)CC2 (stereo not given) | inconclusive: 24.3 µM [inhibitor, partial curve] | –
26 | Cc1ccc(CC(=O)N2CCN(c3cccc(C(F)(F)F)c3)CC2)cc1 | inactive | –
27 | CCN1CCN(CCCNC(=O)Cn2nc(C)n3c(cc4cc(C)ccc43)c2=O)CC1 | inconclusive: 21.7 µM [inhibitor, partial curve] | –
28 | O=C1NC(c2ccco2)Nc2ccccc21 (stereo not given) | active: 24.3 µM | –
29 | COc1ccccc1NC(=O)c1sc2ncn(Cc3ccccc3C)c(=O)c2c1C | inconclusive: 19.3 µM [inhibitor, partial curve] | –
30 | Cc1ccc(-c2nnc(-c3ccc(NC(=O)Cc4cccs4)cc3)o2)cc1 | inconclusive: 21.7 µM [inhibitor, partial curve, poor fit] | –
31 | Cc1cc(N2CCOCC2)nc2ccc(NC(=O)CCC(=O)N3CCCCC3)cc12 | active: 24.3 µM | –
32 | CCc1nc(Nc2ccncc2)c2oc3ccccc3c2n1 | inconclusive: 24.3 µM [inhibitor, partial curve] | –
33 | O=c1cc(-c2ccco2)oc2ccc(Cl)cc12 | – | inconclusive: -23.9% [inhibitor]
34 | CCOc1ccc(-c2cn3c(n2)sc2cc(C(=O)NC4CCCc5ccccc54)ccc23)cc1 (stereo not given) | inconclusive: 19.3 µM [inhibitor, partial curve] | –
35 | O=C(NC1CCCCC1)N(Cc1cc2cc3c(cc2[nH]c1=O)OCCO3)CC1CCCO1 (stereo not given) | inconclusive: 19.3 µM [inhibitor, partial curve] | –
36 | Cc1ccc(-n2c(-c3ccco3)nc3nc4ccccc4nc32)cc1F | inconclusive: 0.968 µM [inhibitor, full curve, poor fit] | –
37 | CCc1cc(N2CCOCC2)cc2c1[nH]c1ccccc12 | active: 17.2 µM | –
38 | COc1cc2ccccc2cc1C(=O)Nc1ccc(Br)cn1 | inconclusive: 24.3 µM [inhibitor, partial curve] | –
39 | COc1cc(-c2nc(-c3ccccc3)c(-c3ccc(F)cc3)[nH]2)cc2c1OCO2 | active: 21.7 µM | –
40 | CC(C)CCNC(=O)c1cc(-c2ccco2)nc2ccccc12 | active: 6.85 µM | –

Given as tab-separated lines: part of the list above.
Row	SMILES	Potency	activity change, negative = inhibition
8	Cc1ccc(C(=O)Nc2cccc(C(F)(F)F)c2)cc1NC(=O)c1nccnc1N	inconclusive: 12.2 µM [inhibitor, full curve]	–
9	Cc1ccc(/C=C/c2nc3ccccc3n2S(=O)(=O)c2cccc(Cl)c2)cc1	inconclusive: 43.2 µM [inhibitor, single point]	–
10	O=C(Nc1sc2c(c1C(=O)NC1CCCCC1)CCC2)c1ccco1	inconclusive: 21.7 µM [inhibitor, partial curve]	–
